Test results taken from article PMC4226561.
Results are given in words; binding and its absence hold for the method and conditions named. Some results given as binding are weak or reduced against the parent protein; the word gives no strength. Tags and fused reporters may be left off the sequences shown. Values belong to the binder of their own block, whether it stands above or below them.

What was measured:
Assay in all cases: two-hybrid; split-ubiquitin membrane-based yeast two-hybrid (MbYTH) in S. cerevisiae NMY51; bait fused to Cub-TF, prey to NubG; 100 colonies of each combination spotted on selective medium with 3-AT, 30°C, three days, grown spots counted; called 'in vitro' by the paper
[1] = target: T1, KOR1C, transmembrane domain plus the C-terminal part of KOR1 (AA 70 to 621), MbYTH fusion (Arabidopsis thaliana) (UniProt Q38890)
T1 sequence: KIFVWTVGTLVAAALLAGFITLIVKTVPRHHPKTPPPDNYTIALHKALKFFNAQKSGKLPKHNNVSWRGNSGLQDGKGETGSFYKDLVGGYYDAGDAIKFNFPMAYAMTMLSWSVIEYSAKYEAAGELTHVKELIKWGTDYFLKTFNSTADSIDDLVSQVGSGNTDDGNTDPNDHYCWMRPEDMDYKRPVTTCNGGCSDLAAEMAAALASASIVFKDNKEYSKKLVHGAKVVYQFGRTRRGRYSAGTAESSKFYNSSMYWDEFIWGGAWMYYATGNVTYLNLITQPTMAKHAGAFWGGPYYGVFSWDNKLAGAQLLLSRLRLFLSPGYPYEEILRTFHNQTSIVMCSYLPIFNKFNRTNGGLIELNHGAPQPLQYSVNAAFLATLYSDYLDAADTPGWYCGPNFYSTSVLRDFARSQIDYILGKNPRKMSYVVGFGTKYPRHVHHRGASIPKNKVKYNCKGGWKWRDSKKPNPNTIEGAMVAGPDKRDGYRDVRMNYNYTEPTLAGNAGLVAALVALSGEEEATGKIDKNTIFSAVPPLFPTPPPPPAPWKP

[2] = target: T2, KOR1N, N-terminal part of KOR1 with the transmembrane domain (AA 1 to 94), MbYTH fusion (Arabidopsis thaliana) (UniProt Q38890)
T2 sequence: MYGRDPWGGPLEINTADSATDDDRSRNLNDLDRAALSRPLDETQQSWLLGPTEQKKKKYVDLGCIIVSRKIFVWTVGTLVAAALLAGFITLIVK

[3] = target: T3, KOR1TMD, only the transmembrane domain of KOR1 (AA 70 to 94), MbYTH fusion (Arabidopsis thaliana) (UniProt Q38890)
T3 sequence: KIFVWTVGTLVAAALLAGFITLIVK

[4] = target: T4, KORRIGAN1 (KOR1), complete protein (AA 1 to 621), MbYTH fusion (Arabidopsis thaliana) (UniProt Q38890)
T4 sequence: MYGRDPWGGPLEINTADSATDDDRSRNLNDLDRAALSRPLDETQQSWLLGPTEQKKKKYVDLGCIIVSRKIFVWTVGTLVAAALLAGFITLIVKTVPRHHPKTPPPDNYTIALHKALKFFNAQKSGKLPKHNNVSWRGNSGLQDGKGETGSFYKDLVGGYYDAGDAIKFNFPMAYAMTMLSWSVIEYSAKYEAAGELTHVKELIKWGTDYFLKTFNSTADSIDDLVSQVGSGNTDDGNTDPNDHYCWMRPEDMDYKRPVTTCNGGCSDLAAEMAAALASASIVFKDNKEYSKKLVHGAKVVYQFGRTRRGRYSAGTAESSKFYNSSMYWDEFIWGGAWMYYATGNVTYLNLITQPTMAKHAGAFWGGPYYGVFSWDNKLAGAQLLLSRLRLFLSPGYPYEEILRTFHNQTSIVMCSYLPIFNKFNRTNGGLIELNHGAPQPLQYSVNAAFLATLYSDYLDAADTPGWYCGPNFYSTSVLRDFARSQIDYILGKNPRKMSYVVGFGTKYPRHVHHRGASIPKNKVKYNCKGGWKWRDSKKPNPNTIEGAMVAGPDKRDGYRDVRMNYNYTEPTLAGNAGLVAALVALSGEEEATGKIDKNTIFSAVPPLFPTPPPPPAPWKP

- binding [1]: binds
- binding [2]: binds
- binding [3]: binds
B1: CESA6 (cellulose synthase, primary cell wall), MbYTH fusion (protein, UniProt Q94JQ6 1-1084)
chain: MNTGGRLIAGSHNRNEFVLINADENARIRSVQELSGQTCQICRDEIELTVDGEPFVACNECAFPVCRPCYEYERREGNQACPQCKTRFKRLKGSPRVEGDEEEDDIDDLDNEFEYGNNGIGFDQVSEGMSISRRNSGFPQSDLDSAPPGSQIPLLTYGDEDVEISSDRHALIVPPSLGGHGNRVHPVSLSDPTVAAHPRPMVPQKDLAVYGYGSVAWKDRMEEWKRKQNEKLQVVRHEGDPDFEDGDDADFPMMDEGRQPLSRKIPIKSSKINPYRMLIVLRLVILGLFFHYRILHPVKDAYALWLISVICEIWFAVSWVLDQFPKWYPIERETYLDRLSLRYEKEGKPSGLSPVDVFVSTVDPLKEPPLITANTVLSILAVDYPVDKVACYVSDDGAAMLTFEALSETAEFARKWVPFCKKYCIEPRAPEWYFCHKMDYLKNKVHPAFVRERRAMKRDYEEFKVKINALVATAQKVPEDGWTMQDGTPWPGNSVRDHPGMIQVFLGSDGVRDVENNELPRLVYVSREKRPGFDHHKKAGAMNSLIRVSGVLSNAPYLLNVDCDHYINNSKALREAMCFMMDPQSGKKICYVQFPQRFDGIDRHDRYSNRNVVFFDINMKGLDGLQGPIYVGTGCVFRRQALYGFDAPKKKKGPRKTCNCWPKWCLLCFGSRKNRKAKTVAADKKKKNREASKQIHALENIEEGRVTKGSNVEQSTEAMQMKLEKKFGQSPVFVASARMENGGMARNASPACLLKEAIQVISCGYEDKTEWGKEIGWIYGSVTEDILTGFKMHSHGWRSVYCTPKLAAFKGSAPINLSDRLHQVLRWALGSVEIFLSRHCPIWYGYGGGLKWLERLSYINSVVYPWTSLPLIVYCSLPAICLLTGKFIVPEISNYASILFMALFSSIAITGILEMQWGKVGIDDWWRNEQFWVIGGVSAHLFALFQGLLKVLAGVDTNFTVTSKAADDGEFSDLYLFKWTSLLIPPMTLLIINVIGVIVGVSDAISNGYDSWGPLFGRLFFALWVIIHLYPFLKGLLGKQDRMPTIIVVWSILLASILTLLWVRVNPFVAKGGPILEICGLDCL

- binding [1]: binds
- binding [2]: binds
- binding [3]: binds
B2: CESA3 (cellulose synthase, primary cell wall), MbYTH fusion (protein, UniProt Q941L0 1-1065)
chain: MESEGETAGKPMKNIVPQTCQICSDNVGKTVDGDRFVACDICSFPVCRPCYEYERKDGNQSCPQCKTRYKRLKGSPAIPGDKDEDGLADEGTVEFNYPQKEKISERMLGWHLTRGKGEEMGEPQYDKEVSHNHLPRLTSRQDTSGEFSAASPERLSVSSTIAGGKRLPYSSDVNQSPNRRIVDPVGLGNVAWKERVDGWKMKQEKNTGPVSTQAASERGGVDIDASTDILADEALLNDEARQPLSRKVSIPSSRINPYRMVIMLRLVILCLFLHYRITNPVPNAFALWLVSVICEIWFALSWILDQFPKWFPVNRETYLDRLALRYDREGEPSQLAAVDIFVSTVDPLKEPPLVTANTVLSILAVDYPVDKVSCYVSDDGAAMLSFESLAETSEFARKWVPFCKKYSIEPRAPEWYFAAKIDYLKDKVQTSFVKDRRAMKREYEEFKIRINALVSKALKCPEEGWVMQDGTPWPGNNTRDHPGMIQVFLGQNGGLDAEGNELPRLVYVSREKRPGFQHHKKAGAMNALVRVSAVLTNGPFILNLDCDHYINNSKALREAMCFLMDPNLGKQVCYVQFPQRFDGIDKNDRYANRNTVFFDINLRGLDGIQGPVYVGTGCVFNRTALYGYEPPIKVKHKKPSLLSKLCGGSRKKNSKAKKESDKKKSGRHTDSTVPVFNLDDIEEGVEGAGFDDEKALLMSQMSLEKRFGQSAVFVASTLMENGGVPPSATPENLLKEAIHVISCGYEDKSDWGMEIGWIYGSVTEDILTGFKMHARGWRSIYCMPKLPAFKGSAPINLSDRLNQVLRWALGSVEILFSRHCPIWYGYNGRLKFLERFAYVNTTIYPITSIPLLMYCTLPAVCLFTNQFIIPQISNIASIWFLSLFLSIFATGILEMRWSGVGIDEWWRNEQFWVIGGVSAHLFAVFQGILKVLAGIDTNFTVTSKASDEDGDFAELYLFKWTTLLIPPTTLLIVNLVGVVAGVSYAINSGYQSWGPLFGKLFFAFWVIVHLYPFLKGLMGRQNRTPTIVVVWSVLLASIFSLLWVRIDPFTSRVTGPDILECGINC

- binding [1]: binds
- binding [2]: binds
- binding [3]: binds
B3: CESA1 (cellulose synthase, primary cell wall), MbYTH fusion (protein, UniProt O48946 1-1081)
chain: MEASAGLVAGSYRRNELVRIRHESDGGTKPLKNMNGQICQICGDDVGLAETGDVFVACNECAFPVCRPCYEYERKDGTQCCPQCKTRFRRHRGSPRVEGDEDEDDVDDIENEFNYAQGANKARHQRHGEEFSSSSRHESQPIPLLTHGHTVSGEIRTPDTQSVRTTSGPLGPSDRNAISSPYIDPRQPVPVRIVDPSKDLNSYGLGNVDWKERVEGWKLKQEKNMLQMTGKYHEGKGGEIEGTGSNGEELQMADDTRLPMSRVVPIPSSRLTPYRVVIILRLIILCFFLQYRTTHPVKNAYPLWLTSVICEIWFAFSWLLDQFPKWYPINRETYLDRLAIRYDRDGEPSQLVPVDVFVSTVDPLKEPPLVTANTVLSILSVDYPVDKVACYVSDDGSAMLTFESLSETAEFAKKWVPFCKKFNIEPRAPEFYFAQKIDYLKDKIQPSFVKERRAMKREYEEFKVRINALVAKAQKIPEEGWTMQDGTPWPGNNTRDHPGMIQVFLGHSGGLDTDGNELPRLIYVSREKRPGFQHHKKAGAMNALIRVSAVLTNGAYLLNVDCDHYFNNSKAIKEAMCFMMDPAIGKKCCYVQFPQRFDGIDLHDRYANRNIVFFDINMKGLDGIQGPVYVGTGCCFNRQALYGYDPVLTEEDLEPNIIVKSCCGSRKKGKSSKKYNYEKRRGINRSDSNAPLFNMEDIDEGFEGYDDERSILMSQRSVEKRFGQSPVFIAATFMEQGGIPPTTNPATLLKEAIHVISCGYEDKTEWGKEIGWIYGSVTEDILTGFKMHARGWISIYCNPPRPAFKGSAPINLSDRLNQVLRWALGSIEILLSRHCPIWYGYHGRLRLLERIAYINTIVYPITSIPLIAYCILPAFCLITDRFIIPEISNYASIWFILLFISIAVTGILELRWSGVSIEDWWRNEQFWVIGGTSAHLFAVFQGLLKVLAGIDTNFTVTSKATDEDGDFAELYIFKWTALLIPPTTVLLVNLIGIVAGVSYAVNSGYQSWGPLFGKLFFALWVIAHLYPFLKGLLGRQNRTPTIVIVWSVLLASIFSLLWVRINPFVDANPNANNFNGKGGVF

- binding [1]: binds
- binding [2]: binds
- binding [3]: binds
- binding [4]: binds
B4: CESA4 (cellulose synthase, secondary cell wall), MbYTH fusion (protein, UniProt Q84JA6 1-1049)
chain: MEPNTMASFDDEHRHSSFSAKICKVCGDEVKDDDNGQTFVACHVCVYPVCKPCYEYERSNGNKCCPQCNTLYKRHKGSPKIAGDEENNGPDDSDDELNIKYRQDGSSIHQNFAYGSENGDYNSKQQWRPNGRAFSSTGSVLGKDFEAERDGYTDAEWKERVDKWKARQEKRGLVTKGEQTNEDKEDDEEEYLDAEARQPLWRKVPISSSKISPYRIVIVLRLVILVFFFRFRILTPAKDAYPLWLISVICEIWFALSWILDQFPKWFPINRETYLDRLSMRFERDGEKNKLAPVDVFVSTVDPLKEPPIITANTILSILAVDYPVNKVSCYVSDDGASMLLFDTLSETSEFARRWVPFCKKYNVEPRAPEFYFSEKIDYLKDKVQTTFVKDRRAMKREYEEFKVRINALVAKAQKKPEEGWVMQDGTPWPGNNTRDHPGMIQVYLGKEGAFDIDGNELPRLVYVSREKRPGYAHHKKAGAMNAMVRVSAVLTNAPFMLNLDCDHYINNSKAIRESMCFLMDPQLGKKLCYVQFPQRFDGIDLNDRYANRNIVFFDINMRGLDGIQGPVYVGTGCVFNRPALYGYEPPVSEKRKKMTCDCWPSWICCCCGGGNRNHKSDSSKKKSGIKSLFSKLKKKTKKKSDDKTMSSYSRKRSSTEAIFDLEDIEEGLEGYDELEKSSLMSQKNFEKRFGMSPVFIASTLMENGGLPEATNTSSLIKEAIHVISCGYEEKTEWGKEIGWIYGSVTEDILTGFRMHCRGWKSVYCMPKRPAFKGSAPINLSDRLHQVLRWALGSVEIFFSRHCPLWYAWGGKLKILERLAYINTIVYPFTSIPLLAYCTIPAVCLLTGKFIIPTINNFASIWFLALFLSIIATAILELRWSGVSINDLWRNEQFWVIGGVSAHLFAVFQGLLKVLFGVDTNFTVTSKGASDEADEFGDLYLFKWTTLLIPPTTLIILNMVGVVAGVSDAINNGYGSWGPLFGKLFFAFWVIVHLYPFLKGLMGRQNRTPTIVVLWSILLASIFSLVWVRIDPFLPKQTGPLLKQCGVDC
